The source of these data is the supplement of paper PMC10398353.

Where “and” joins values, the source holds several entries; their conditions need not be identical. Equal values may be shown once. Where a name gives a salt, the structure may show the parent alone. ± gives the standard deviation of the averaged measurements. The list shows a part of the results. This is a noisy data set.

This experiment deals with Salmonella enterica serovar Typhimurium ST313 D23580. Nature of the experiment: normalized bacterial growth (OD600 20 h minus 0 h, interquartile-mean normalized) (fraction of plate interquartile mean); higher = more bacterial growth (less inhibition). Particulars: LPM (pH 5.8, low phosphate, low Mg2+), concentration: 10 µM, temperature: 37 °C.
Molecule `CCCCC/C=C/C=C/C(=O)NCC(C)C` displayed a normalized bacterial growth of 0.769. `COc1cc(C)c(C(=O)Oc2cc(C)c(C(=O)O)c(O)c2C)c(OC)c1C` yielded a normalized bacterial growth of 0.85. For `O=C1NC(=O)c2cc(Nc3ccccc3)c(Nc3ccccc3)cc21` the value was 0.87; for `CSCC[C@H](NC=O)C(=O)N[C@@H](Cc1ccccc1)C(=O)O`, 1.27.

The molecule `CC(=O)O[C@@H]1C[C@H]2C(C)(C)C(=O)C=C[C@]2(C)[C@H]2CC[C@@]3(C)[C@H](c4ccoc4)OC(=O)[C@H]4O[C@]43[C@@]21C` returned a normalized bacterial growth of 0.867. For `CCCOc1ccc2[nH]c(NC(=O)OC)nc2c1` the value was 0.935.

Turning to `Cc1cc2nc3c(=O)[nH]c(=O)nc-3n(C[C@H](O)[C@H](O)[C@H](O)CO)c2cc1C`, the normalized bacterial growth stood at 1.28. For `Cc1cc2nc3c(=O)[nH]c(=O)nc-3n(C[C@H](O)[C@H](O)[C@H](O)CO)c2cc1C` [Riboflavine] the value was 1.16; for `C[C@H]1[C@H](C)CC[C@]2(C(=O)O)CC[C@]3(C)C(=CC[C@@H]4[C@@]5(C)CC[C@H](O)C(C)(C)[C@@H]5CC[C@]43C)[C@H]12`, 1.05 ± 0.078. As to `O=C(c1ccc(F)cc1)C1CCN(CCn2c(=O)[nH]c3ccccc3c2=O)CC1` [Ketanserin tartrate hydrate], the normalized bacterial growth is 0.946. Regarding `O=C(c1ccc(F)cc1)C1CCN(CCn2c(=O)[nH]c3ccccc3c2=O)CC1` [Ketanserin tartrate], the normalized bacterial growth was found to be 1.17. Then `CCN(CC)C(=O)c1ccc(O)c(OC)c1` [Vanillic acid diethylamide], with 0.997; and `NC1(C(=O)O)CC1`, with 0.83; and `NC1(C(=O)O)CC1` [1-Aminocyclopropanecarboxylic acid hydrochloride], with 1.14. For `Oc1cc2c(cc1O)C1c3ccc(O)c(O)c3OCC1(O)C2` (stereo unspecified) the value was 1.02; for `CC(=O)[C@@]1(O)CC[C@H]2[C@@H]3CCC4=CC(=O)CC[C@]4(C)[C@H]3CC[C@@]21C`, 0.995. For the molecule `O=C(O)/C=C/C(O)c1ccc(Cl)cc1` (stereo unspecified), the normalized bacterial growth was determined as 0.844.

`CC(C)CC(NC(=O)OCC1c2ccccc2-c2ccccc21)C(=O)O` (stereo in doubt): the normalized bacterial growth came to 1.14.

The molecule `COC(=O)C1=C(C)NC(C)=C(C(=O)OC(C)(C)CN(C)CCC(c2ccccc2)c2ccccc2)C1c1cccc([N+](=O)[O-])c1` (stereo unspecified) [Lercanidipine hydrochloride hemihydrate] had a normalized bacterial growth of 0.835. Then `C[C@]12CCC(=O)C=C1CC[C@@H]1[C@@H]2CC[C@@]2(C)[C@H]1CC[C@]2(O)C(=O)CO` [Cortexolone], with 1.12; and `COc1ccc2cc1Oc1ccc(cc1)C[C@H]1c3cc(c(OC)cc3CCN1C)Oc1c(OC)c(OC)c(OC)c3c1[C@H](C2)N(C)CC3`, with 0.788; and `CN(C)CCC(c1ccc(Br)cc1)c1ccccn1` (stereo unspecified) [()-Brompheniramine maleate], with 1.06. Then `COc1ccc(Cl)cc1NC(=O)Nc1cc(C)nc2ccccc12`, with 1.47; and `COc1ccccc1N1CCN(CCCNc2c(C)c(=O)n(C)c(=O)n2C)CC1` ["Urapidil, 5-Methyl-"], with 1.01. `Oc1c(Cl)cc(Cl)c2cccnc12`: the normalized bacterial growth amounted to 0.0117. For `c1ccc(-c2ccc(C(c3ccccc3)n3ccnc3)cc2)cc1` (stereo unspecified) the value was 0.454; for `CC(=O)OC[C@H]1O[C@@H]([S-])[C@H](OC(C)=O)[C@@H](OC(C)=O)[C@@H]1OC(C)=O.CCP(CC)CC.[Au+]`, 0.475; for `N#Cc1ccc2c(c1)N(CCCN1CCC(O)CC1)c1ccccc1S2`, 0.845. `CC1CCN(CC[C@H]2CCCN2S(=O)(=O)c2cccc(O)c2)CC1` returned a normalized bacterial growth of 0.81. Molecule `Nc1ncnc2c1ncn2[C@@H]1O[C@H](CO)[C@@H](O)[C@@H]1O` displayed a normalized bacterial growth of 0.891. The molecule `Nc1ncnc2c1ncn2[C@@H]1O[C@H](CO)[C@@H](O)[C@@H]1O` [Vidarabine] had a normalized bacterial growth of 0.98. Then `NC[C@@H]1O[C@H](C23CC4CC(CC(C4)C2)C3)Cc2c1ccc(O)c2O`, with 0.791. `O=c1[nH]cnc2nc[nH]c12` came in with a normalized bacterial growth of 0.989. For `C[C@@](Cc1ccc(O)c(O)c1)(NN)C(=O)O` the value was 1.02. Take `Oc1cc2c(cc1O)C(c1ccccc1)CNCC2` (stereo unspecified): the normalized bacterial growth was 1.13 and 1.07. As to `COc1ccc2cc1Oc1ccc(cc1)C[C@@H]1c3cc(c(OC)cc3CCN1C)Oc1c(OC)c(OC)cc3c1[C@H](C2)N(C)CC3`, the normalized bacterial growth amounted to 1. Then `CN1CCN(CC(=O)N2c3ccccc3C(=O)Nc3cccnc32)CC1` [Pirenzepine dihydrochloride], with 1.22; and `CN(CCCCCCCCCCN(C)C(=O)Oc1cccc([N+](C)(C)C)c1)C(=O)Oc1cccc([N+](C)(C)C)c1` [Demecarium bromide], with 0.885. Then `CC(=O)N(CC(O)CO)c1c(I)c(C(=O)NCC(O)CO)c(I)c(C(=O)NCC(O)CO)c1I` (stereo unspecified) [Iohexol], with 1.24; and `COC(=O)Nc1nc2cc(Sc3ccccc3)ccc2[nH]1`, with 0.86; and `COC(=O)Nc1nc2cc(Sc3ccccc3)ccc2[nH]1` [Fenbendazole], with 1.02. The molecule `CNCCc1cnc(CCC(c2ccccc2)c2ccccc2)[nH]1` [N-Methylhistaprodifen dioxalate salt] gave a normalized bacterial growth of 0.822.

`NC(Cn1ccc(=O)c(O)c1)C(=O)O` (stereo unspecified) came in with a normalized bacterial growth of 1.2. Then `CC(C)NCC(O)COc1ccc(CC(N)=O)cc1` (stereo unspecified) [()-Atenolol], with 0.607.

Molecule `COc1cc2ccc(=O)oc2c(O)c1O` had a normalized bacterial growth of 0.79. Take `CC(CNC1CCCCC1)OC(=O)c1ccccc1` (stereo unspecified) [Hexylcaine hydrochloride]: the normalized bacterial growth stood at 1.06.

`Nc1ccc(S(=O)(=O)Nc2nccs2)cc1` had a normalized bacterial growth of 0.993. The molecule `COC(=O)C(O)c1ccccc1` (stereo unspecified) returned a normalized bacterial growth of 1.01.

For the molecule `Cc1ccc(-c2cc(C(F)(F)F)nn2-c2ccc(S(N)(=O)=O)cc2)cc1`, the normalized bacterial growth stood at 0.775.

As to `O=C1c2ccccc2C(=O)c2c(O)c(O)cc(O)c21`, the normalized bacterial growth was determined as 0.707. The molecule `CC(C)[N+]1(C)[C@@H]2CC[C@H]1C[C@@H](OC(=O)C(CO)c1ccccc1)C2` (stereo partly specified) came in with a normalized bacterial growth of 1.2. Consider `CC(C)[N+]1(C)[C@@H]2CC[C@H]1C[C@@H](OC(=O)C(CO)c1ccccc1)C2` (stereo partly specified) [Ipratropium bromide], for which the normalized bacterial growth is 1.13 ± 0.21. Then `CC[C@H]1OC(=O)[C@H](C)[C@@H](O[C@H]2C[C@@](C)(OC)[C@@H](O)[C@H](C)O2)[C@H](C)[C@@H](O[C@@H]2O[C@H](C)C[C@H](N(C)C)[C@H]2O)[C@](C)(O)C[C@@H](C)CN(C)[C@H](C)[C@@H](O)[C@]1(C)O`, with 0.871; and `C[C@@H]1CCC[C@H](C)N1NC(=O)c1ccc(Cl)c(S(N)(=O)=O)c1` [Clopamide], with 1.1. For `C[C@@H]1CCC[C@H](C)N1NC(=O)c1ccc(Cl)c(S(N)(=O)=O)c1` the value was 1.14; for `CCOC(=O)C(Cc1ccc(O)cc1)NC(C)=O` (stereo unspecified), 1.01. In the case of `CN[C@H]1CC[C@@H](c2ccc(Cl)c(Cl)c2)c2ccccc21` [Sertraline hydrochloride], the normalized bacterial growth amounted to 0.921. `COc1ccc2c(c1)c(CC(=O)O)c(C)n2Cc1ccc(F)cc1` [1-(4-Fluorobenzyl)-5-methoxy-2-methylindole-3-acetic acid] had a normalized bacterial growth of 0.93.

Regarding `O[C@H]1[C@H](O)[C@@H](O)C2OC[C@H]1O2`, the normalized bacterial growth was found to be 1.19.

As to `CC(=O)Nc1c(I)c(C(=O)N[C@H]2C(O)O[C@H](CO)[C@@H](O)[C@@H]2O)c(I)c(N(C)C(C)=O)c1I` (stereo partly specified) [Metrizamide], the normalized bacterial growth amounted to 0.532. As to `NC[C@H](O)c1ccc(O)c(O)c1`, the normalized bacterial growth was determined as 1.17. For `CCN(CC)CCNC(=O)c1ccc(N)cc1` [Procainamide hydrochloride] the value was 1.2; for `Cc1ccccc1N1CCN(S(=O)(=O)C[C@]23CC[C@H](C[C@@H]2NC(=O)[C@@H](N)CCS(C)(=O)=O)C3(C)C)CC1` ["L-368,899 hydrochloride"], 0.999. Then `O=C(Oc1cc(O)cc2c1C[C@@H](OC(=O)c1cc(O)c(O)c(O)c1)[C@@H](c1cc(O)c(O)c(O)c1)O2)c1cc(O)c(O)c(O)c1`, with 1.04. Then `c1ccc2c(c1)CC(N1CCN(c3cccc4c3OCCO4)CC1)C2`, with 1.15; and `CC(=O)c1cc2ccccc2oc1=O` [3-Acetylcoumarin], with 1.35. `CCCCCCOc1ccccc1C(N)=O` returned a normalized bacterial growth of 0.838. `O=C(O)C1=C(CSc2nnnn2CS(=O)(=O)O)CS[C@@H]2[C@H](NC(=O)[C@H](O)c3ccccc3)C(=O)N12`: the normalized bacterial growth worked out at 1.05. `OC[C@H]1O[C@@H](n2cnc3c(N[C@H]4CC5CCC4C5)ncnc32)[C@H](O)[C@@H]1O` (stereo partly specified) gave a normalized bacterial growth of 0.897. The molecule `c1cc(CN2CCCCC2)cc(OCCCNc2nc3ccccc3s2)c1` registered a normalized bacterial growth of 0.701.

Molecule `CC(C)CC(NC(=O)[C@H](C)N)C(=O)O` (mixture of isomers) had a normalized bacterial growth of 0.943. The molecule `CC(=O)O[C@]1(C)CC[C@@]23C[C@H]1C(C)(C)[C@@H]2CC[C@H]3C` gave a normalized bacterial growth of 1.07. `CC(=O)Nc1c(I)cc(I)c(C(=O)O)c1I` returned a normalized bacterial growth of 1.17. For `CC(=O)Nc1nnc(S(N)(=O)=O)s1` [Acetazolamide] the value was 1.21; for `COC1=CC(=O)C(O)=C/C1=C\C=C\c1ccccc1`, 0.652. Regarding `O=C(O)CCC(C(=O)O)N1C(=O)c2ccccc2C1=O` ["L-Glutamic acid, N-phthaloyl-"], the normalized bacterial growth was determined as 0.84. Then `COc1cc(O)c2c(=O)cc(C)oc2c1CC=C(C)C`, with 0.778. For `OC[C@@H](O)[C@@H](O[C@@H]1O[C@H](CO)[C@@H](O)[C@H](O)[C@H]1O)[C@H](O)[C@@H](O)CO` the value was 1.05; for `C[N+](C)(C)CC(O)CC(=O)[O-]` (stereo unspecified), 0.887 and 1.07. For `NC(N)=N[C@@H](CCC(=O)O)C(=O)O` [alpha-Guanidinoglutaric acid] the value was 1.14; for `CCCCOc1cc(C(=O)OCCN(CC)CC)ccc1N` [Benoxinate hydrochloride], 1.01. For the molecule `CCCCC[C@H](O)/C=C/[C@H]1C(=O)C=C[C@@H]1C/C=C\CCCC(=O)O`, the normalized bacterial growth stood at 0.897. For `C=C1O[C@@](CO)(n2cnc3c(N)ncnc32)[C@H](O)[C@@H]1O` the value was 1.21.

For `CC(=O)C1CCC2C3CC=C4CC(OS(=O)(=O)O)CCC4(C)C3CCC12C` (stereo unspecified), the normalized bacterial growth amounted to 1.11.

`O=C1/C(=C/c2ccc(O)c(O)c2)Oc2c1ccc(O[C@@H]1O[C@H](CO)[C@@H](O)[C@H](O)[C@H]1O)c2O` gave a normalized bacterial growth of 0.693.

`O=C(/C=C/c1ccc(O)c(O)c1)O[C@H](Cc1ccc(O)c(O)c1)C(=O)O` gave a normalized bacterial growth of 1.1 ± 0.16.
